1 molecule from PMC8904830, “Differential recognition of canonical NF-κB dimers by Importin α3” (Nature Communications, 2022) can be followed below.

The chains behind the UniProt entries cited, without tags or fusion partners. Where a name states a change or a piece, a line headed by the entry shows the natural chain unless it says otherwise.
UniProt P19838: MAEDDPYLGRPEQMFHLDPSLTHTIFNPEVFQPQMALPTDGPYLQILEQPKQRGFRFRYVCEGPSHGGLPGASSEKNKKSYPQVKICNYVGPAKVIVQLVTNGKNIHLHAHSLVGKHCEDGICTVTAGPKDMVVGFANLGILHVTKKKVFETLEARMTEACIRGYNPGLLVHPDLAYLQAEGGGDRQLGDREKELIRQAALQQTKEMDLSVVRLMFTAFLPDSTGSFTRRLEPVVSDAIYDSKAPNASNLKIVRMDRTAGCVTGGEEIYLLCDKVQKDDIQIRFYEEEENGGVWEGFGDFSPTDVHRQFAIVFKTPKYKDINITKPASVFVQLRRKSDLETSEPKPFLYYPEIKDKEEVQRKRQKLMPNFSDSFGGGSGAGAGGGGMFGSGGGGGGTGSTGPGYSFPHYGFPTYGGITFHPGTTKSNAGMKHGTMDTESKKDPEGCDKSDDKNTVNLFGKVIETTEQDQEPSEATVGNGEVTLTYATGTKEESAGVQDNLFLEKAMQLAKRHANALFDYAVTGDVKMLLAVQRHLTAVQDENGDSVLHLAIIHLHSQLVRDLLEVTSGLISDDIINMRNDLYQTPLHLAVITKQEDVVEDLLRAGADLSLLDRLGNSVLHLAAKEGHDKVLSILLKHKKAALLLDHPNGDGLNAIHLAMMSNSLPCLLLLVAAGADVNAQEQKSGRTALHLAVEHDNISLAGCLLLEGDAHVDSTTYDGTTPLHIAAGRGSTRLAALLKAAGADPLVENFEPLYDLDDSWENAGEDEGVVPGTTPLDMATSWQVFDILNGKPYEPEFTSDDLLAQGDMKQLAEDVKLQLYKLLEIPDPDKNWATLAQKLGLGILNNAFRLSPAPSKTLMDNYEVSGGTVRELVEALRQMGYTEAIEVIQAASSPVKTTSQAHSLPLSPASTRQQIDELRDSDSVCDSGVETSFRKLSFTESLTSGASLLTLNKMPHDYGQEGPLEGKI

Results are given in words; binding and its absence hold for the method and conditions named. Some results given as binding are weak or reduced against the parent protein; the word gives no strength.

This experiment deals with T1, NF-κB p50/p65 heterodimer (human, UniProt P19838 1-366; Q04206 1-306).
T1 construct: NF-κB p50, human, residues 1-366; NF-κB p65 (RelA), human, residues 1-306, untagged; also called wild-type NF-κB; source: subunits from E. coli BL21 DE3, purified; assembled by incubating p50:p65 at 1:1.5 molar ratio; copies: 1 + 1
The experiment in a line: native gel or EMSA; competition: purified ΔIBB-importin α3 titrated (up to ~54 μM) against ~130 pmoles of pre-formed p50/p65:IκBα (Fig. 4b lanes 11-16); 1.5% agarose gel; both purified. (In general: Mobility shift assays separate free from complexed probe on a gel.)

B1: IκBα (residues 67-287) (domain or fragment, UniProt P25963 67-287, looked up)
chain: KQQLTEDGDSFLHLAIIHEEKALTMEVIRQVKGDLAFLNFQNNLQQTPLHLAVITNQPEIAEALLGAGCDPELRDFRGNTPLHLACEQGCLASVGVLTQSCTTPHLHSILKATNYNGHTCLHLASIHGYLGIVELLVSLGADVNAQEPCNGRTALHLAVDLQNPDLVSLLLKCGADVNRVTYQGYSPYQLTWGRPSTRIQQQLGQLTLENLQMLPESEDEE
notes: IκBα, residues 67-287, untagged; source: recombinant, expressed and purified as previously described (pET-11a)
On to B1, for which the binding entry is on record as “binds”.
